The data set has as its system T1, GtgR (Gifsy-2 phage repressor + also written GftR) (Salmonella enterica ATCC14028, Gifsy-2 prophage).
T1 sequence (looked up, limits assumed): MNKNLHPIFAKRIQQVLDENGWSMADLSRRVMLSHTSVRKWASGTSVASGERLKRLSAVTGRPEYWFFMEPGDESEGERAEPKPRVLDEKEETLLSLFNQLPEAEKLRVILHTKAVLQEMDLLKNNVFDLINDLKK
Kind of data set: EMSA. The conditions noted are these: GftA antirepressor (~0.01-10 pmol) added to preformed complex, operator progressively released; 20 mM Tris-HCl pH 7.5, 50 mM NaCl, 0.2 mM EDTA (5x stock in Methods: 1 mM), 1 mM MgCl2, 5% glycerol, PMSF, 50 ug/mL sonicated salmon sperm DNA; room temperature; recombinant protein; protein details: N-terminal 6xHis; label: 32P 5' end (T4 PNK); probe letters rebuilt from the primers and the genome.

Construct, isoform or probe ends are uncertain for at least one entry. Weaker means in comparison with the reference protein, sequence or condition of that experiment. Protein sequences can lack the tags named with them.

Take “GTTCGCCGATGCTCATTTGAGTCATGTGGTTACTGATTTTGATTTTTAATTGGTTGTCCATTTGGCTCTCCAGTTCTACGAGTTGGTAGCTGGAGATTATCACGTAAAACTTTAGGTTCCAACAAAAATCAATCTAATAGTTCCAATGAATAAAGAAACTGAAGGTTGTAAAATGTGAATATGAACAAAAATCTTCATCCCATTTTCGCCAAGCGTATCCAGCAAGTTCTGGATGAGAACGGCTGGTCTATGGCTGACCTCTCACGG (double strand) [Gifsy-2 right operator fragment (267 bp)]”: the binding result is “binds more weakly”.

The values above are taken from article PMC3121763.
